Results deposited as PubChem BioAssay AID1224828 (NIAID, 2016)
Purpose: 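Find genes required for NF-kappaB p65 moving into the nucleus after LPS in mouse macrophages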 (primary screen). Cells: mouse RAW264.7 G9 macrophage reporter cells (GFP-p65, Tnf promoter-mCherry). Reagents: siRNA pool against mouse genes, 100 nM. Timing: 2 days siRNA transfection, then 40 min LPS before fixation. Conditions: LPS (Salmonella minnesota R595) at 10 ng/ml. Measurement: 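Imaged p65 nuclear translocation ratio, normalised to the plate median, converted to robust z-scores and averaged across two replicates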. Direction: p65 translocation robust z-score: higher = more nuclear NF-kappaB p65 after LPS than the plate median; nuclear/cytoplasmic p65 ratio: higher = more nuclear NF-kappaB p65. Hit rule: 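Active if robust z is above 3.3 (negative regulators) or below -1.56, the Tlr4 control median (positive regulators); activity score 50 or more; control wells not called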. Meaning of the calls: active = hit (p65 shift raised or lowered); inactive = no clear change.
The whole screen tested about 17,000 reagents; shown is a random part of them. 762 of all reagents (4.5%) were called active. 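Active calls include both raised and lowered p65 entry, mostly lowered; wells with fewer than 50 cells lack a z-score.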 The raw values are shown without normalisation. Entries without a mark were called inactive. Reagents against one gene are numbered here. No sequences are given here.

no.	Gene	pool no.	p65 translocation robust z-score	nuclear/cytoplasmic p65 ratio, rep 1	nuclear/cytoplasmic p65 ratio, rep 2	low cell count flag
1	Sdr16c5	1	0.41	1.46	1.27	enough cells to score
2	Bet1	1	0.74	1.64	1.51	enough cells to score
3	Pds5b	1	-0.64	1.52	1.52	enough cells to score
4	Ubash3b	1		1.08	1.15	fewer than 50 cells per well; well left out of scoring
5	Rangrf	1	1.54	1.62	1.35	enough cells to score
6	Znrf1	1	-1.19	1.31	1.75	enough cells to score
7	Lrfn5	1	1.59	1.94	1.8	enough cells to score
8	Fbxo43	1	-0.24	1.27	1.24	enough cells to score
9	Mat2a	1	1.55	1.91	1.82	enough cells to score
10	Sub1	1	0.53	1.49	1.69	enough cells to score
11	Macir	1	2.43	1.94	1.88	enough cells to score
12	Bcl11a	1	-0.54	1.47	1.59	enough cells to score
13	Syt6	1	-0.58	1.39	1.13	enough cells to score
14	Csn1s1	1	1.77	1.87	2.04	enough cells to score
15	Mlkl	1	-0.76	1.45	1.29	enough cells to score
16	Commd3	1	1.25	1.7	2.05	enough cells to score
17	C2cd4c	1		0.861	0	fewer than 50 cells per well; well left out of scoring
18	Slc7a1	1	-0.07	1.4	1.24	enough cells to score
19	Sfxn4	1		1.35	1.33	fewer than 50 cells per well; well left out of scoring
20	Rab3il1	1	-1.17	1.47	1.24	enough cells to score
21	Rab3il1	2	2.36	1.83	2.29	enough cells to score
22	Cops7b	1	0.69	1.73	1.84	enough cells to score
23	Vmn1r48	1		0	0	fewer than 50 cells per well; well left out of scoring
24	Trhr2	1	2.59	1.7	1.35	enough cells to score
25	Tigd3	1	-0.4	1.69	1.45	enough cells to score
26	Dhx33	1	1.67	1.71	1.89	enough cells to score
27	Arid4b	1	-0.01	1.69	1.55	enough cells to score
28	Ggt5	1	-0.64	1.41	1.45	enough cells to score
29	Mettl6	1	-1.17	1.34	1.25	enough cells to score
30	Mpp3	1		1.65	1.46	fewer than 50 cells per well; well left out of scoring
31	Zfp324	1	-0.12	1.57	1.52	enough cells to score
32	Grb10	1	-0.24	1.31	1.43	enough cells to score
33	Rpusd2	1		1.07	1.25	fewer than 50 cells per well; well left out of scoring
34	Or10ag58	1	-0.04	1.75	1.52	enough cells to score
35	Rarb	1	0.74	1.55	1.69	enough cells to score
36	Slc29a4	1		0.919	1.28	fewer than 50 cells per well; well left out of scoring
37	Or51f1d	1		1.31	1.22	fewer than 50 cells per well; well left out of scoring
38	Nptx1	1	-0.25	1.43	1.36	enough cells to score
39	Ppbp	1	-0.35	1.41	1.35	enough cells to score
40	Ces1d	1	0.5	1.38	1.44	enough cells to score
41	Wee2	1		1.16	1.44	fewer than 50 cells per well; well left out of scoring
42	Il33	1	1.4	1.52	1.85	enough cells to score
43	Serpina10	1	-0.35	1.44	1.57	enough cells to score
44	Spata24	1		1.47	1.6	fewer than 50 cells per well; well left out of scoring
45	Bnc2	1	-0.46	1.12	1.46	enough cells to score
46	Cwc22	1	-0.12	1.51	1.88	enough cells to score
47	Ugt2b38	1	1.96	1.61	1.9	enough cells to score
48	Bckdk	1		1.54	1.32	fewer than 50 cells per well; well left out of scoring
49	Or5al7	1	1.01	1.78	1.75	enough cells to score
50	BC023105	1	0.82	1.71	1.97	enough cells to score
51	Lrrc7	1	-0.25	1.5	1.66	enough cells to score
52	Rnf10	1	-0.06	1.41	1.21	enough cells to score
53	Tnfrsf23	1	0.1	1.38	1.11	enough cells to score
54	Frey1	1	-0.4	1.31	1.39	enough cells to score
55	Gas2l1	1	0.09	1.69	1.57	enough cells to score
56	Lamtor2	1	0.56	1.8	1.63	enough cells to score
57	Polr2c	1	2.66	1.7	1.53	enough cells to score
58	5330438D12Rik	1	1.6	1.47	1.77	enough cells to score
59	4631423B10Rik	1	1.36	1.4	1.46	enough cells to score

Entries above whose target name begins with Z or z (2):
Gene	pool no.	p65 translocation robust z-score	nuclear/cytoplasmic p65 ratio, rep 1	nuclear/cytoplasmic p65 ratio, rep 2	low cell count flag
Znrf1	1	-1.19	1.31	1.75	enough cells to score
Zfp324	1	-0.12	1.57	1.52	enough cells to score
